The nature of this test: IkB Signaling. Conditions: ABC-DLBCL IkBa-CBG/CBR dual luciferase ratio (green luciferase fused to IkBa over red control in OCI-Ly3 lymphoma cells), 4 h. The gist of the method:
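Curves were fitted separately to fusion (green), unfused (red) and ratio luminescence, then classed by r2, magnitude and activity. Cells: OCI-Ly3, 4 h compound plus doxycycline at 37C; 10 uM MG-132 defined full response.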

The mark [1] stands for this setting: measured here: control luc red channel unless noted.
Setting [2] is: measured here: IkB-luc green channel.
Setting [3] is: measured here: control luc red channel.

Among the data in PubChem BioAssay AID445 (National Center for Advancing Translational Sciences (NCATS), 2006) are AC50 values, retold here.

One may read the AC50 as the midpoint of the concentration-response curve, whichever way the signal moves.

Molecules are shown by their SMILES. Some of the results follow. Further columns of the screen follow, without active or inactive calls. Compounds called inactive in the main read-out are mostly missing here. Words in brackets tell the shape of the fitted curve; partial curves, single points and poor fits give uncertain potencies.

Take `O=C(C1CCCN(S(=O)(=O)c2ccccc2)C1)N1CCCc2ccccc21` (centres undefined): the AC50 under setting [1] is 31.6 µM [falling, single point].

Consider `COc1ccc(-c2nnc(NC(=O)c3ccc(S(=O)(=O)N4COCC4(C)C)cc3)o2)cc1`, for which, under setting [1], the AC50 was 7.94 µM [falling, partial curve]. Take `COc1ccccc1-c1cc(NC(=O)COc2ccccc2Cl)n(-c2ccccc2)n1`: the concentration at half-maximal activity (AC50) under setting [1] was 10 µM [rising, partial curve].

Regarding `Cc1ccc(C)c(CN2C(=O)c3ccccc3Sc3ccc(C(=O)NCc4cccs4)cc32)c1`, the AC50 under setting [1] is 12.6 µM [falling, partial curve]. As for `COc1ccc(NC(=O)c2c(N)c(C(=O)c3ccc(C)cc3)n3ccccc23)cc1OC`, the AC50 under setting [1] was 1.58 µM [falling, partial curve]. As to `CCN1CCN(Cc2nc3cc(NC(=O)c4ccccc4[N+](=O)[O-])ccc3n2CC)CC1`, under setting [1], the AC50 was 31.6 µM [falling, single point]. For `COc1ccc(NC(=O)c2ccc3c(c2)c(C)c(C)n3Cc2ccc(F)cc2)cc1`, under setting [1], the AC50 was 7.94 µM [rising, partial curve]. The same measure, in the same setting: the same measure for `O=C(Nc1cccc(F)c1)c1ccc2c(c1)OCO2`: 39.8 µM [falling, single point]; for `Cc1c(Cl)cccc1-n1ncc(C(=O)NCc2cccs2)c1C1CCN(C(=O)OC(C)(C)C)CC1`: 20 µM [falling, partial curve]. On to `O=C(CSc1nnnn1-c1ccc(Cl)cc1)N1CCc2ccccc2C1`, for which, under setting [1], the AC50 is 31.6 µM [falling, single point].

Consider `COc1ccc(-n2c(Cc3cccn3C)nnc2SCC(=O)Nc2cccc(Cl)c2)cc1`, for which, under setting [1], the AC50 is 12.6 µM [falling, partial curve]. Consider `COc1ccc(Cl)cc1NC(=O)Cn1nc(Cc2ccncc2)c2ccccc2c1=O`, for which the AC50 under setting [1] is 15.8 µM [falling, single point]. The same measure, in the same setting: next, `Cc1ccc(OC(=O)CSc2nnc(-c3cccs3)o2)cc1C`: 20 µM [falling, single point]; `CCOc1ccc(-n2c(SCC(=O)N3CCCCCC3)nc3c([nH]c4ccccc43)c2=O)cc1`: 0.0158 µM [rising, full curve, poor fit].

Regarding `CCn1cc(C(=O)NCCc2ccc(OC)c(OC)c2)c(=O)c2cc(S(=O)(=O)N3CCC(C)CC3)ccc21`, under setting [1], the half-maximal activity concentration (AC50) was 0.251 µM [rising, full curve].

Take `CC(C)Cn1c(N)c(C(=O)COC(=O)c2ccc3ccccc3n2)c(=O)n(C)c1=O`: the AC50 under setting [1] was 25.1 µM [falling, single point]. Still for that read-out and setting: the same measure for `CC(C)(C)C1CCc2c(sc3nnn(CCOc4ccccc4)c(=O)c23)C1` (centres undefined): 5.01 µM [falling, partial curve]. `COc1cc(NC(=O)c2nc3ccccc3nc2N2CCCCC2)cc(OC)c1OC`: under setting [1], the AC50 was 15.8 µM [falling, partial curve]. For the compound `Cc1cccc(-c2nc(CSCC(=O)NCCc3ccc(Cl)cc3)c(C)o2)c1`, the AC50 under setting [1] is 15.8 µM [falling, partial curve]. The same measure, in the same setting: next, `Cc1ccc(CNC(=O)c2ccc(-c3nc(CS(=O)c4ccccc4)c(C)o3)cc2)cc1` (centres undefined): 25.1 µM [falling, single point]; `CCCCn1c2c(c(=O)n(C)c1=O)C(CC(=O)OCC(=O)Nc1cccc(C(F)(F)F)c1)C(=O)N2` (centres undefined): 15.8 µM [falling, partial curve]; `O=C(CCCn1c(=S)[nH]c2cc3c(cc2c1=O)OCO3)N1CCN(c2ccccc2)CC1`: 10 µM [falling, partial curve].

Take `COc1cccc(-c2nn(C)c3sc(C(=O)Nc4ccc5c(c4)OCCO5)cc23)c1`: the AC50 under setting [1] was 2 µM [falling, full curve]. Same read-out and setting: next, `COCCn1ccc2c(OCC(=O)Nc3ccccc3F)cccc2c1=O`: 0.0316 µM [falling, full curve]; `CCOC(=O)N1CCc2c(sc3c2c(=O)n(CCc2ccccc2)c(=O)n3CC(=O)Nc2cccc(C)c2)C1`: 10 µM [falling, partial curve].

Turning to `N#C/C(=C/c1cn(Cc2ccccc2Cl)c2ccccc12)C(=O)Nc1cccc(Cl)c1`, under setting [1], the AC50 was 0.794 µM [falling, full curve]. In the case of `Cc1cc(C)c(NC(=O)Cn2c(=O)nc(-c3ccccc3)c3cc(Cl)ccc32)c(C)c1`, the AC50 under setting [1] was 12.6 µM [falling, partial curve]. On to `COc1ccccc1N=c1oc2c(OC)cccc2cc1C(=O)NCc1ccco1`, for which the AC50 under setting [1] is 5.01 µM [falling, partial curve].

With `COc1cc(NC(=O)N2CCC3(CC2)Nc2cc(F)ccc2-n2cccc23)cc(OC)c1OC`, under setting [1], the AC50 is 25.1 µM [falling, partial curve, poor fit]. `CCc1cccc(CC)c1-n1nnc2c(sc3nc(C)cc(C)c32)c1=O`: under setting [1], the AC50 was 0.2 µM [rising, full curve, poor fit]. Turning to `O=C(CSc1nc(-c2ccc(F)cc2)[nH]c1-c1ccccc1)Nc1ccccc1`, the AC50 reads like this: under setting [2], 39.8 µM [rising, single point]; under setting [3], 5.01 µM [falling, single point]. As for `O=C(OCc1nnc(-c2ccccc2)o1)c1ccc2c(c1)OCCO2`, the AC50 under setting [1] is 15.8 µM [falling, partial curve].

For `Clc1ccc(OCc2nc3ccccc3n2Cc2ccccc2)c(Cl)c1`, under setting [1], the AC50 is 25.1 µM [falling, single point]. On the same count and under the same terms, the same measure for `COc1ccc(S(=O)(=O)c2c(SC)nn(CC(=O)Nc3cccc(C)c3C)c2N)cc1`: 12.6 µM [falling, partial curve]; for `Cc1ccc2c(c1)NC(=O)c1cccnc1O2`: 6.31 µM [rising, partial curve]. As to `Cc1[nH]nc2c1C(c1ccc(-c3ccccc3C#N)o1)C(C#N)=C(N)O2` (centres undefined), the AC50 under setting [1] is 39.8 µM [falling, single point].

With `Cc1cccc(OCC(O)Cn2c(=N)n(CCN3CCCCC3)c3ccccc32)c1` (centres undefined), the AC50 under setting [1] was 25.1 µM [falling, partial curve].

On to `CCn1cc(C(=O)NCc2ccc(C)cc2)c(=O)c2cc(S(=O)(=O)N(C)C3CCCCC3)ccc21`, for which the AC50 under setting [1] was 3.98 µM [falling, full curve]. For the compound `CCc1ccc(CN(Cc2ccco2)C(=O)COc2ccc(Cl)c(C)c2)cc1`, the AC50 under setting [1] is 31.6 µM [falling, partial curve]. Consider `CCC(C)NC(=O)CSc1nc2c(sc3ccccc32)c(=O)n1CCc1ccc(OC)c(OC)c1` (centres undefined), for which the AC50 under setting [1] is 0.00794 µM [rising, full curve, poor fit]. In the case of `CCN(c1ccccc1)S(=O)(=O)c1ccc(Oc2ccc(-n3ccnc3)cc2)nc1`, under setting [1], the AC50 is 31.6 µM [falling, partial curve].

With `CCC(C)NC(=O)c1cc(-c2ccccc2O)on1` (centres undefined), the AC50 under setting [1] was 0.00398 µM [falling, full curve].

As for `Cc1cc(C)n(-c2nc3cc(Cl)ccc3nc2Nc2ccc(CC(=O)O)cc2)n1`, under setting [1], the AC50 was 20 µM [falling, partial curve]. Regarding `Cc1ccc(Nc2nc(N)nc(CN3CCN(c4ccccc4)CC3)n2)cc1Cl`, the AC50 under setting [1] is 12.6 µM [falling, partial curve]. On to `CCCCn1c(NCc2cc(Br)ccc2O)nc2ccccc21`, for which the AC50 under setting [1] was 20 µM [falling, partial curve]. On to `Cc1cccc(NC(c2ccccc2C)c2ccc3ccc(C)nc3c2O)n1` (centres undefined), for which the AC50 reads like this: under setting [2], 6.31 µM [rising, single point]; under setting [3], 25.1 µM [falling, single point]. Regarding `Cc1ccc(C(=O)Oc2c(S(=O)(=O)c3ccccc3)c(C)nn2-c2ccccc2)cc1`, the AC50 under setting [1] is 10 µM [falling, partial curve]. Same read-out and setting: next, `CN1C(=O)c2ccccc2Sc2ccc(NC(=O)NCc3cccc(Cl)c3)cc21`: 7.94 µM [falling, partial curve].

Turning to `COc1ccc(-n2c(-c3ccc(C)cc3)cc3c2CC(C)(C)CC3=O)c(OC)c1`, the AC50 under setting [1] was 31.6 µM [falling, partial curve]. Take `Cc1c(-c2nc(-c3ccccc3F)no2)nnn1-c1cc(F)ccc1F`: under setting [1], the AC50 was 0.794 µM [rising, full curve]. On the same count and under the same terms, the same measure for `O=c1oc2cc(O)ccc2cc1-c1nnc(Nc2ccccc2F)s1`: 0.398 µM [falling, full curve]. In the case of `CCn1c(C(=O)N2CCC(C(=O)NCCCSC3CCCCC3)CC2)cc2sccc21`, the AC50 under setting [1] is 12.6 µM [falling, partial curve]. Regarding `COCCCNC(=O)c1ccc2nc3ccccc3c(=O)n2c1`, the AC50 under setting [1] is 3.16 µM [falling, full curve]. With `COc1ccc(CCNC(=O)c2ccc3c(c2)N(Cc2ccccc2F)C(=O)c2ccccc2S3=O)cc1OC` (centres undefined), the AC50 under setting [1] was 0.631 µM [rising, full curve].

For `CCOC(=O)c1ccc(NS(=O)(=O)c2ccc(SC)cc2)cc1`, under setting [1], the AC50 was 15.8 µM [falling, partial curve]. As for `O=C(CN1C(=O)COc2ccc(S(=O)(=O)N3CCCC3)cc21)N1CCN(c2cccc(C(F)(F)F)c2)CC1`, under setting [1], the AC50 was 3.98 µM [falling, partial curve]. For the compound `COc1ccc(N2CCN(S(=O)(=O)CCNC(=O)COc3ccccc3F)CC2)cc1`, the AC50 under setting [1] was 10 µM [falling, partial curve, poor fit].

Consider `O=C(c1ccco1)N1CCN(C(=O)C2CC(c3ccc(Cl)c(Cl)c3)=NO2)CC1` (centres undefined), for which, under setting [1], the AC50 is 20 µM [falling, single point]. In the case of `Cc1ccc2c(c1C)NC(=O)CC2c1ccc(Cl)cc1Cl` (centres undefined), the AC50 under setting [1] is 39.8 µM [falling, single point].

`Cc1ccc(OCC(=O)Nc2cccc(C(=O)OCc3cc(=O)n4nc(C)sc4n3)c2)cc1`: under setting [1], the AC50 is 3.16 µM [falling, full curve].

Turning to `Cc1ccc2c(c1)nnn2C1CCN(CC(=O)N2c3ccccc3CC2C)CC1` (centres undefined), under setting [1], the AC50 was 31.6 µM [falling, single point]. In the case of `O=C(O)c1ccc(NC(=O)c2cn(-c3ccccc3)nc2-c2ccc(Br)cc2)cc1`, under setting [1], the AC50 is 10 µM [falling, partial curve].
